Experimental data: PubChem BioAssay AID588497 (NMMLSC, 2011)
The whole screen tested about 360,000 compounds, of which about 780 (0.22%) were called active. The shares of active, inactive and inconclusive entries below differ from those in the screen. No stated cut-off is given here; in the data, active means inhibition above about 35% (passing the limit was not always enough); inconclusive means no clear call, values can overlap the other calls.

Each compound was assayed on Botulinum neurotoxin type F light chain protease (Clostridium botulinum) (assay: BoNT/F light chain protease inhibitors, primary screen, biochemical, flow cytometry, MLPCN library (AID 588497; further: plate controls were buffer without enzyme for full effect and enzyme alone for no effect)). Settings: Multiplex microsphere protease cleavage assay, at 10 µM, stronger effect = higher value.

| SMILES | inhibition |
| --- | --- |
| O=C1CCN(Cc2ccco2)C(=S)N1 | inactive: -7.2% |
| Cc1ccc2c(c1)NC(=O)CC(c1ccccc1)=N2 | inactive: -1.4% |
| CCOc1cccc(Nc2ccc([N+](=O)[O-])cn2)c1 | inconclusive: -11.3% |
| O=C(NCCNc1nccc(C(F)(F)F)n1)c1cccs1 | inconclusive: -9.4% |
| O=C(Nc1ccccc1O)c1cccc(S(=O)(=O)Nc2ccccc2O)c1 | inactive: -8.8% |
| O=C1CC(N2CCN(c3ccc(Cl)cc3)CC2)C(=O)N1c1ccc(F)cc1 (stereo unspecified) | active: 56.5% |
| c1ccc2c(CN3CCCCC3)c[nH]c2c1 | inconclusive: -88.5% |
| CC(C)(C)c1cc(C(=O)NN)n(Cc2ccc(Cl)cc2Cl)n1 | inconclusive: 4.5% |
| CCC(OC(=O)c1cccs1)C(=O)NCc1ccc(C)cc1 (stereo unspecified) | inactive: -3.7% |
| COc1cc(Cl)c([C@@H]2C[C@H]3CN(c4ccccc4)C(=O)[C@]34CCCN24)cc1OC | inactive: 1.4% |
| C/C(=N\NC(=O)c1ccc(Cl)c(Cl)c1)c1ccccn1 | active: 37.4% |
| CCn1nnc(NC(=O)c2ccc(-c3ccc(Cl)cc3)o2)n1 | inactive: -37.3% |
| O=S1(=O)CCC(n2nccc2-c2ccccc2)C1 (stereo unspecified) | inconclusive: 9.6% |
| Cn1nc2sc3ccccc3n2c(=O)c1=O | inconclusive: -26.9% |
| FC(F)(F)c1ccc(Cl)c(-n2c(Cc3cccs3)n[nH]c2=S)c1 | inconclusive: 2.8% |
| CCN(CC)CC(=O)Nc1sc(C)cc1C(=O)c1ccc(C)cc1 | inconclusive: 0.9% |
| CCc1noc(C)c1C(=O)NNC(=O)COc1ccc(C)cc1 | inconclusive: 1.3% |
| COC(=O)Cn1c(=O)c2c(nc3n2CCCN3CCc2ccccc2)n(C)c1=O | inconclusive: -23.4% |
| CCC(C)CNC(=O)c1[nH]c(C(F)(F)F)nc1-c1ccccc1 (stereo unspecified) | inactive: 1.5% |
| Cc1cccc(OC(=O)C2C(c3ccccc3)C(C(=O)O)C2c2ccccc2)c1 (stereo unspecified) | inactive: 5.6% |
| CS(=O)(=O)N1CCC(C(=O)Nc2cc(Cl)c(Cl)cc2Cl)CC1 | inconclusive: 13.7% |

| SMILES | inhibition |
| --- | --- |
| CCOP(=O)(OCC)/C(C#N)=C/c1ccc(Br)cc1 | inconclusive: -9.8% |
| CCC(=O)N/C=C/n1cnc2cc(C(F)(F)F)ccc21 | inconclusive: -14.1% |
| CCC(Cc1ccccc1)NC(=O)C1CC1 (stereo unspecified) | inconclusive: 23.3% |
| O=C1NC[C@@H](CCCCN2CCN(CCc3ccccc3)C(=O)C2=O)N(CCC2CCCCC2)C1=O | inactive: -5.9% |
| CC(C)(C)c1ccc(S(=O)(=O)N2CCC(O)(c3ccc(Cl)cc3)CC2)cc1 | inconclusive: 124% |
| Fc1ccc(CNC(=S)NCc2ccc(F)cc2)cc1 | inconclusive: -62.8% |
| COC(=O)c1ccc(OC(=O)N2CCOCC2)cc1 | inconclusive: 7% |
| Cc1nnc2n1N=CC=C(C(C)(C)C)S2 | inactive: -3.4% |
| Cn1ncc2c(Sc3ccc(Cl)cc3)ncnc21 | inconclusive: 1.7% |
| CCC(CC)N1CCN(S(=O)(=O)c2ccc(OC)cc2)CC1 | inconclusive: 21.3% |
| COc1ccc(CC(=O)NCc2ccccc2Cl)cc1S(=O)(=O)N1CCOCC1 | inactive: -0.8% |
| O=C(NNC(=O)c1ccc(Cl)c(Cl)c1)c1ccncc1 | inactive: 2.2% |
| Cc1ccc(-c2nc(C(F)(F)F)cc(=O)[nH]2)cc1 | inconclusive: 11.9% |
| COc1ccc(-c2ccc(OC)cc2)cc1 | inconclusive: -8.3% |
| O=S(=O)(c1ccc(OCc2nc3ccccc3s2)c(Cl)c1)N1CCOCC1 | inconclusive: -10.7% |
| CN1CCN(C(=S)c2ccc(-c3cccc([N+](=O)[O-])c3)o2)CC1 | inconclusive: -7.8% |
| Nc1cc(=O)[nH]c(=O)n1CCc1ccccc1 | inconclusive: 8.7% |
| CN(CC(=O)Nc1cccc(F)c1)C(=O)c1ccccc1-n1cnnn1 | inconclusive: 21.1% |
| CCc1nc(CNC(=O)C2CCC(=O)N(Cc3cccc(OC)c3)C2)no1 (stereo unspecified) | inactive: -2.9% |
| COC(=O)c1ccc(CSc2nc(N3CCOCC3)c3c(c2C#N)CC(C)(C)OC3)o1 | inconclusive: 29.3% |
| COc1cc2[nH]c(C(=O)N3CC(C)OC(C)C3)cc2c(OC)c1OC (stereo unspecified) | inactive: -10.8% |

| SMILES | inhibition |
| --- | --- |
| Cc1onc(-c2c(Cl)cccc2Cl)c1CO/N=C(\C#N)c1c(Cl)cccc1Cl | inconclusive: 7.7% |
| CCN(CC)S(=O)(=O)c1ccc(N(C)C)c(NC(=O)CC(NC(C)=O)c2ccccc2)c1 (stereo unspecified) | inactive: -0.9% |
| CCCCCCN=CC1=C(O)CC(C)(C)CC1=O | inactive: -17.1% |
| Oc1ccc(/C=N\Nc2cc(N3CCOCC3)nc(N3CCOCC3)n2)c(O)c1 | inactive: -12.3% |
| CCN1CCc2c(sc(NC(=S)NC(=O)c3ccc(Cl)cc3)c2C(N)=O)C1 | inconclusive: -117% |
| C[C@H](N)C(=O)OCc1ccc([N+](=O)[O-])cc1 | inconclusive: -19.8% |
| Cc1ccc(NC(=S)N2CCN(c3ccccc3F)CC2)c(C)c1 | inconclusive: -2.1% |
| O=C(NCC1CCCO1)C1CCCN(S(=O)(=O)c2cccc3nsnc23)C1 (stereo unspecified) | inconclusive: -15.2% |
| Cc1ccc(C(=O)COc2cccc(NC(=O)c3ccco3)c2)cc1 | active: 44.6% |
| CN(C)/C=C/C(=O)c1ccc(Oc2ccccc2)cc1 | inactive: -6.9% |
| Fc1ccc(-c2noc(-c3ccc4c(c3)CCO4)n2)cc1 | inconclusive: -51% |
| COc1ccccc1C(=O)NC(CCSC)C(=O)NCc1ccncc1 (stereo unspecified) | inactive: -1.6% |
| N#Cc1ccccc1S(=O)(=O)N1CCC(C(=O)Nc2cccc(C(=O)NC3CC3)c2)CC1 | inconclusive: 29.5% |
| C=CCc1cc(S(=O)(=O)c2ccc(O)c(CC=C)c2)ccc1O | inconclusive: 15.8% |
| CCC(=Cc1ccc(CC)cn1)CC | inconclusive: -6.3% |
| O=C(NC(=S)Nc1ccccc1Cl)c1cncc(C#Cc2ccccc2)c1 | inconclusive: -2.9% |
| Cc1nccn1CCOc1ccc(Cl)cc1 | inconclusive: -13.7% |
| CCCc1ccc(OCC(O)CN2CCCC2)cc1 (stereo unspecified) | inconclusive: -4.6% |
| CCc1n[nH]c(=O)n1Cn1c(CC)n[nH]c1=O | inconclusive: -0.8% |

Laid out differently: 17 of the compounds above
SMILES,inhibition
CCCCCCN=CC1=C(O)CC(C)(C)CC1=O,inactive: -17.1%
Oc1ccc(/C=N\Nc2cc(N3CCOCC3)nc(N3CCOCC3)n2)c(O)c1,inactive: -12.3%
CCN1CCc2c(sc(NC(=S)NC(=O)c3ccc(Cl)cc3)c2C(N)=O)C1,inconclusive: -117%
C[C@H](N)C(=O)OCc1ccc([N+](=O)[O-])cc1,inconclusive: -19.8%
Cc1ccc(NC(=S)N2CCN(c3ccccc3F)CC2)c(C)c1,inconclusive: -2.1%
O=C(NCC1CCCO1)C1CCCN(S(=O)(=O)c2cccc3nsnc23)C1 (stereo unspecified),inconclusive: -15.2%
Cc1ccc(C(=O)COc2cccc(NC(=O)c3ccco3)c2)cc1,active: 44.6%
CN(C)/C=C/C(=O)c1ccc(Oc2ccccc2)cc1,inactive: -6.9%
Fc1ccc(-c2noc(-c3ccc4c(c3)CCO4)n2)cc1,inconclusive: -51%
COc1ccccc1C(=O)NC(CCSC)C(=O)NCc1ccncc1 (stereo unspecified),inactive: -1.6%
N#Cc1ccccc1S(=O)(=O)N1CCC(C(=O)Nc2cccc(C(=O)NC3CC3)c2)CC1,inconclusive: 29.5%
C=CCc1cc(S(=O)(=O)c2ccc(O)c(CC=C)c2)ccc1O,inconclusive: 15.8%
CCC(=Cc1ccc(CC)cn1)CC,inconclusive: -6.3%
O=C(NC(=S)Nc1ccccc1Cl)c1cncc(C#Cc2ccccc2)c1,inconclusive: -2.9%
Cc1nccn1CCOc1ccc(Cl)cc1,inconclusive: -13.7%
CCCc1ccc(OCC(O)CN2CCCC2)cc1 (stereo unspecified),inconclusive: -4.6%
CCc1n[nH]c(=O)n1Cn1c(CC)n[nH]c1=O,inconclusive: -0.8%

As entered above:
Value of CCc1n[nH]c(=O)n1Cn1c(CC)n[nH]c1=O under inhibition: inconclusive: -0.8%
Value of Cc1ccc(NC(=S)N2CCN(c3ccccc3F)CC2)c(C)c1 under inhibition: inconclusive: -2.1%
